According to PMC3525571:
Results are given in words; binding and its absence hold for the method and conditions named. Binding seen in cells or lysates may run through a third protein. Some entries that bind do so weakly or less than the wild type.

B1: recombinant CD93 domain 1 protein (rCD93D1) (domain or fragment, UniProt Q9NPY3 22-177)
chain: TGADTEAVVCVGTACYTAHSGKLSAAEAQNHCNQNGGNLATVKSKEEAQHVQRVLAQLLRREAALTARMSKFWIGLQREKGKCLDPSLPLKGFSWVGGGEDTPYSNWHKELRNSCISKRCVSLLLDLSQPLLPSRLPKWSEGPCGSPGSPGSNIEG

Target: EGF receptor (EGFR) (human (endogenous in HUVECs)) (UniProt P00533)
Test: co-IP; subconfluent HUVECs starved in serum-free M199 for 4 h, incubated with 0.5 µg recombinant protein for 30 min; EGFR immunoprecipitated with EGFR Ab, recombinant proteins detected by immunoblot with c-Myc Ab; rabbit IgG as negative control; only the binder purified

| Molecule | binding |
| --- | --- |
| recombinant soluble CD93 protein with domains 1, 2 and 3 (rCD93D123) (from UniProt Q9NPY3 22-580) (domain or fragment) | binds |
| recombinant soluble CD93 protein with domains 2 and 3 (rCD93D23) (from UniProt Q9NPY3 258-580) (domain or fragment) | binds |
| B1 | no binding (tested: 0.5 µg of rCD93D1) |
